Measurements: article doi:10.1101/2021.01.27.428547
Where two headings read alike, the source gives them in different places. These are yes or no findings as the source states them, for the method shown. Binding seen in cells or lysates may run through a third protein. Here binding means that the protein was enriched with, or labelled near, the bait; the list need not be complete. For some of these results: No binding means not detected with the bait. For some of these results: Where a sequence is shown, tags or fusion partners need not be part of it.

Chains of the proteins cited; added tags and fusions are not shown. Lines headed by an entry give the natural chain unless they say otherwise; changes in a name come on top.
UniProt Q9FKZ2: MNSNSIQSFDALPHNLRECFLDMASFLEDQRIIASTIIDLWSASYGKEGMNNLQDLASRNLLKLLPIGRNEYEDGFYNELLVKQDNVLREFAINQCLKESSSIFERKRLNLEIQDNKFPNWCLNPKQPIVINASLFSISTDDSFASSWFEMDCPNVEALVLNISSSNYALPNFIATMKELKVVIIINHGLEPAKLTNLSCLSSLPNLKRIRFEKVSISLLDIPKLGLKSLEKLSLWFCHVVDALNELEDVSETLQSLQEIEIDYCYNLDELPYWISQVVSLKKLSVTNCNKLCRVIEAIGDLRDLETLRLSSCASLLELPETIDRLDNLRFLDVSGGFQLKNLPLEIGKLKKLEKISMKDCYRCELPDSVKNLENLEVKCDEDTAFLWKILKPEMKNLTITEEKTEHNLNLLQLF
UniProt Q9SU72: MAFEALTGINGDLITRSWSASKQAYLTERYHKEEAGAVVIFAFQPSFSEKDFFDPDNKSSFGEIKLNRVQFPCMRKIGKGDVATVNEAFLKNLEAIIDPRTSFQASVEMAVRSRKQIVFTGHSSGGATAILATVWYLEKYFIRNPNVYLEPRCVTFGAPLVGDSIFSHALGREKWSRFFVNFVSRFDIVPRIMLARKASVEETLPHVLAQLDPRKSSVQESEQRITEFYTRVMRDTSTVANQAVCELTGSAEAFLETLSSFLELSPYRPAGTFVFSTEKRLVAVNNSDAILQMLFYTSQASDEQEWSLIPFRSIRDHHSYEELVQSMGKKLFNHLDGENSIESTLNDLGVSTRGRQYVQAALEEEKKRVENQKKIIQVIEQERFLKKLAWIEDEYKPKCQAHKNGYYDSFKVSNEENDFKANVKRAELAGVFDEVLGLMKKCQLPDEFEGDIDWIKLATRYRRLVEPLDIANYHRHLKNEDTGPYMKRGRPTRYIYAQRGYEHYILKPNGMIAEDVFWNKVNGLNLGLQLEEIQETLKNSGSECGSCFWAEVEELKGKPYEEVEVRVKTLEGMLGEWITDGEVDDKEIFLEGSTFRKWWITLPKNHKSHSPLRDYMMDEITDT
UniProt Q4F883: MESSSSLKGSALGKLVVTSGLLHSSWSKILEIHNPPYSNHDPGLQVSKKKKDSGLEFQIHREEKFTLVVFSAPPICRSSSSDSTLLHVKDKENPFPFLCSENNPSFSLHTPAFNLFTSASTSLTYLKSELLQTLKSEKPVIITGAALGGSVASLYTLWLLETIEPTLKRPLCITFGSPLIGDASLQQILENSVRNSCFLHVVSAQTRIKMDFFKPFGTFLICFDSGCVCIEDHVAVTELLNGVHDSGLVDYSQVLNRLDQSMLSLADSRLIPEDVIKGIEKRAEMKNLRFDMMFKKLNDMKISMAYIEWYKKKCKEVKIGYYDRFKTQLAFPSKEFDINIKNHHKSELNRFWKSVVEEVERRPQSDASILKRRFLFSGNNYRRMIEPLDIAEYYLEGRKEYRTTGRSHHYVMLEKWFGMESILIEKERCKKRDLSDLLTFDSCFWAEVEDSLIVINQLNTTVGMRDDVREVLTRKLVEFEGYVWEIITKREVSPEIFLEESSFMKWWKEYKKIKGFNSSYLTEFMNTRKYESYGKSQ

What was measured:
Assay in all cases: proximity labelling
[1] = target: NRG1C-HA-TurboID (A. thaliana) (UniProt Q9FKZ2)
[2] = target: EDS1-HA-TurboID (A. thaliana) (UniProt Q9SU72)
[3] = target: EDS1-HA-TurboID (A. thaliana) (UniProt Q9SU72); remark: listed apart in the source

For “EDS1 (endogenous, A. thaliana) (from UniProt Q9SU72)”, the binding [1] was “no binding”.

With “SAG101-3FLAG (in A. thaliana) (from UniProt Q4F883)” the binding [1] was “binds”.

“SAG101-3FLAG (in N. benthamiana) (from UniProt Q4F883)” was tested, and the binding [2] was “binds”.

B1: PAD4-ZZ-TEV-FLAG (protein, UniProt Q9S745 1-541)
chain: MDDCRFETSELQASVMISTPLFTDSWSSCNTANCNGSIKIHDIAGITYVAIPAVSMIQLGNLVGLPVTGDVLFPGLSSDEPLPMVDAAILKLFLQLKIKEGLELELLGKKLVVITGHSTGGALAAFTALWLLSQSSPPSFRVFCITFGSPLLGNQSLSTSISRSRLAHNFCHVVSIHDLVPRSSNEQFWPFGTYLFCSDKGGVCLDNAGSVRLMFNILNTTATQNTEEHQRYGHYVFTLSHMFLKSRSFLGGSIPDNSYQAGVALAVEALGFSNDDTSGVLVKECIETATRIVRAPILRSAELANELASVLPARLEIQWYKDRCDASEEQLGYYDFFKRYSLKRDFKVNMSRIRLAKFWDTVIKMVETNELPFDFHLGKKWIYASQFYQLLAEPLDIANFYKNRDIKTGGHYLEGNRPKRYEVIDKWQKGVKVPEECVRSRYASTTQDTCFWAKLEQAKEWLDEARKESSDPQRRSLLREKIVPFESYANTLVTKKEVSLDVKAKNSSYSVWEANLKEFKCKMGYENEIEMVVDESDAMET
In the case of B1, the binding [3] is reported as “binds”.
